Results deposited as PubChem BioAssay AID1224830 (NIAID, 2016)
This is an unselected part of about 18,000 reagents. About 2,900 of all reagents (16%) count as active. 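Calls are made per well; low scores hint the gene aids the LPS response, high scores that it dampens it.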 Unmarked entries are inactive. Repeated entries: four replicate wells of each siRNA pool. No sequences are given here.

- Test: 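Regulators of TLR4 signalling towards TNF-alpha in macrophage-like cells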 (primary screen)
- System: human THP-1 monocytic leukaemia cells, TNF dual-luciferase reporter clone, PMA-differentiated to macrophage-like cells
- Knock-down reagent: siRNA pool against human genes, 50 nM
- Duration: LPS for 4 h, given about 3 days after siRNA transfection
- Conditions: bacterial LPS (TLR4 ligand), 10 ng/ml
- Measurement: 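Ratio of firefly to renilla light, scaled to the plate median and expressed as a robust z-score per replicate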
- Scale: TNF reporter robust z-score: higher = stronger TNF reporter response to LPS
- Rule for the call: 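Each well counts as active if its z-score is over 2.8 or under -1.5; controls are left without a call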

| gene knocked down | TNF reporter robust z-score |
| --- | --- |
| ZNF200 | -1.05 |
| ZNF200 | -1.19 |
| ZNF200 | -1.02 |
| ZNF200 | -0.91 |
| ZBTB26 | -0.39 |
| ZBTB26 | -0.01 |
| ZBTB26 | -0.06 |
| ZBTB26 | 0.3 |
| UBR3 | 0 |
| UBR3 | -1.52 (active) |
| UBR3 | -0.05 |
| UBR3 | -0.58 |
| SERINC3 | 0.95 |
| SERINC3 | 0.93 |
| SERINC3 | 0.23 |
| SERINC3 | 1.05 |
| LCMT2 | -0.65 |
| LCMT2 | 1.88 |
| LCMT2 | 1.4 |
| LCMT2 | 1.05 |
| PRKD1 | -1.7 (active) |
| PRKD1 | -0.07 |
| PRKD1 | -0.27 |
| PRKD1 | -0.66 |
| TMEM144 | 0.61 |
| TMEM144 | -0.1 |
| TMEM144 | -0.09 |
| TMEM144 | 0.02 |
| RACGAP1 | -0.11 |
| RACGAP1 | -0.81 |
| RACGAP1 | -0.68 |
| RACGAP1 | -0.28 |
| TPD52 | -1.19 |
| TPD52 | -0.55 |
| TPD52 | -2.34 (active) |
| TPD52 | -0.23 |
| CSRNP2 | 1.37 |
| CSRNP2 | 1.52 |
| CSRNP2 | -0.29 |
| CSRNP2 | 1.89 |
| KRT8 | 2.24 |
| KRT8 | 1.22 |
| KRT8 | 1.53 |
| KRT8 | 2 |
| COQ7 | 1.5 |
| COQ7 | -0.1 |
| COQ7 | -0.82 |
| COQ7 | 2.36 |
| KIZ | -1.04 |
| KIZ | 0.27 |
| KIZ | 0.46 |
| KIZ | 0.67 |
| CABP2 | 0.62 |
| CABP2 | 0.41 |
| CABP2 | 0.86 |
| CABP2 | 1 |
| CYP27C1 | -0.37 |
| CYP27C1 | 0.6 |
| CYP27C1 | -0.5 |
| CYP27C1 | -0.2 |
| TIPE2 | 0.04 |
| TIPE2 | 0.36 |
| TIPE2 | -0.25 |
| TIPE2 | -0.04 |
| PRL | -0.7 |
| PRL | -0.78 |
| PRL | -0.99 |
| PRL | -0.08 |
| ZBTB33 | 0.46 |
| ZBTB33 | 1.33 |
| ZBTB33 | 0.11 |
| ZBTB33 | 1.16 |
| PLPP4 | -0.35 |
| PLPP4 | 0.15 |
| PLPP4 | -0.55 |
| PLPP4 | -0.24 |
| ATP10A | -0.21 |
| ATP10A | 0.97 |
| ATP10A | -0.31 |
| ATP10A | 0.38 |
| ZNF75A | 0.22 |
| ZNF75A | 0.07 |
| ZNF75A | 0.18 |
| ZNF75A | 0.99 |
| TUBGCP4 | -0.74 |
| TUBGCP4 | 0.28 |
| TUBGCP4 | 0.07 |
| TUBGCP4 | 1.1 |
| MIR99AHG | -0.72 |
| MIR99AHG | -0.68 |
| MIR99AHG | -0.84 |
| MIR99AHG | 0.07 |
| TOX2 | 2.86 (active) |
| TOX2 | 0.32 |
| TOX2 | -0.44 |
| TOX2 | -0.06 |
| SNX31 | -0.39 |
| SNX31 | 0.28 |
| SNX31 | 0.1 |
| SNX31 | 0.6 |
| ETNK1 | 0.54 |
| ETNK1 | 0.5 |
| ETNK1 | 0.44 |
| ETNK1 | 0.95 |
| CHD1L | -0.11 |
| CHD1L | 0.54 |
| CHD1L | -0.59 |
| CHD1L | 0.04 |
| DHRS11 | -0.76 |
| DHRS11 | 0.02 |
| DHRS11 | -0.56 |
| DHRS11 | 0.98 |
